Reference: PMC9107676
Results are given in words; binding and its absence hold for the method and conditions named. Binding seen in cells or lysates may run through a third protein. Binding calls can cover weak binding; strength is not graded here. Sequences can lack the tags named with a protein.

Key:
Test in all cases: co-IP; HEK293T cells transfected with Flag-HnRNP F (WT or deletion mutants) with or without pCAGGS-HA-N; lysed in RIPA buffer; immunoprecipitation with the indicated antibody (anti-Flag) overnight at 4 °C, protein A + G beads, five washes with RIPA; western blotting
[1] = molecular target: T1, Flag-tagged full-length porcine HnRNP F (heterogeneous nuclear ribonucleoprotein F) (porcine) (UniProt F1RG16)
T1 sequence: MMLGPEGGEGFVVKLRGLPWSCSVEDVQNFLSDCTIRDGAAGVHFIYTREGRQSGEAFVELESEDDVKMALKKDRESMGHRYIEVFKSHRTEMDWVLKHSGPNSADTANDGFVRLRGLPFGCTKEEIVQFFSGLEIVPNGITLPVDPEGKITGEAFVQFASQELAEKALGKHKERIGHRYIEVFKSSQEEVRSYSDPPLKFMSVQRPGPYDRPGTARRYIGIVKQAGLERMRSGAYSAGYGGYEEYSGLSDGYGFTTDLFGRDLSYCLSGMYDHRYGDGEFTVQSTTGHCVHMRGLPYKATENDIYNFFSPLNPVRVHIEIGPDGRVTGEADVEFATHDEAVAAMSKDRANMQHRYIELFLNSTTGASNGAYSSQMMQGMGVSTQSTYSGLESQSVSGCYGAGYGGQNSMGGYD

[2] = molecular target: T2, Flag-tagged porcine HnRNP F deletion mutant lacking the qRRM2 domain (residues 111-188) (porcine) (UniProt F1RG16)
T2 sequence: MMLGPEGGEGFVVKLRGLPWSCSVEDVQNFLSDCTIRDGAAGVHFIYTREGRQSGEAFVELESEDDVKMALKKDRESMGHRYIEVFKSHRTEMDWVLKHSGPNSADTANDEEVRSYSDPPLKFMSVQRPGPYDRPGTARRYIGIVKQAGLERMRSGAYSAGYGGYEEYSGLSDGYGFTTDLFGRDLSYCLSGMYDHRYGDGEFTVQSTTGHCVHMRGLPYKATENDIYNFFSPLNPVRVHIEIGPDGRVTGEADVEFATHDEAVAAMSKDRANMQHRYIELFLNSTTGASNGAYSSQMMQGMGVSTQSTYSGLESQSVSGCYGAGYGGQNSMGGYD

[3] = molecular target: T3, Flag-tagged porcine HnRNP F deletion mutant lacking the qRRM3 domain (residues 289-414) (porcine) (UniProt F1RG16)
T3 sequence: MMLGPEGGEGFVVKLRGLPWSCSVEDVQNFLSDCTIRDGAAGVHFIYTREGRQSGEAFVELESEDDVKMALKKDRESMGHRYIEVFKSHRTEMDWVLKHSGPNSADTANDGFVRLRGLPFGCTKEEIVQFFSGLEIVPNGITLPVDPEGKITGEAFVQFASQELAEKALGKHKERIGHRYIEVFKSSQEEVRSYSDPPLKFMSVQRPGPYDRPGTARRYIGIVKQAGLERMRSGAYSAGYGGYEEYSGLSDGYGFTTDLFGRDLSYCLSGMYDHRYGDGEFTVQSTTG

Measured: binding

HA-tagged PRRSV nucleocapsid (N) protein
binds: all assays above
